# Experimental data taken from patent US20120128688A1.
# Sequences of proteins named here, by UniProt entry; tags and fusion partners are left off.
# UniProt P32302: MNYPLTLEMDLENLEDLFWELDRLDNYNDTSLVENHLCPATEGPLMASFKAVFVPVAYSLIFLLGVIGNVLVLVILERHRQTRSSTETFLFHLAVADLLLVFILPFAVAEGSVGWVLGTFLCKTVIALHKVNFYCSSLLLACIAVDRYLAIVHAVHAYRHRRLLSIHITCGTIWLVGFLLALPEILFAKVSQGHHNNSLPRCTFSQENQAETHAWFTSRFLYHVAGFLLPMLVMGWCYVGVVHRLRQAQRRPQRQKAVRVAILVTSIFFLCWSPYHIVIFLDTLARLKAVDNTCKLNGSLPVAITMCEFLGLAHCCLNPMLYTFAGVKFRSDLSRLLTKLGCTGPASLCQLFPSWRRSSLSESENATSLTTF
# No constants are given. Whether binding was seen depends on the method and setting. Some entries that bind do so weakly or less than the wild type.
# Legend:
# CXCR5 (human) [1] = target: CXCR5 (human) (UniProt P32302); experiment: imaging flow cytometry (Amnis Imagestream) of LNCaP and PC3 cells stained with anti-CXCR5 and anti-CXCL13 antibodies 30 and 60 minutes after 0 or 100 ng/ml CXCL13; signal correlation between CXCR5 and CXCL13
# CXCR5 (human) [2] = target: CXCR5 (human) (UniProt P32302); experiment: imaging flow cytometry (figure legend, FIGS. 22A-B)
binder,measurement,setting,value
CXCL13 (ligand) VLEVYYTSLRCRCVQESSVFIPRRFIDRIQILPRGNGCPRKEIIVWKKNKSIVCVDPQAEWIQRMMEVLRKRSSSTLPVPVFKRKIP,binding,CXCR5 (human) [1],binds
same,binding,CXCR5 (human) [2],binds
